From paper PMC9241928
No constants are given. Whether binding was seen depends on the method and setting. Binding seen in cells or lysates may run through a third protein. Some binding calls cover weakened binding; strength is not graded here.

Protein sequences, listed by entry. Tags and fused reporters are not part of them.
UniProt P17844: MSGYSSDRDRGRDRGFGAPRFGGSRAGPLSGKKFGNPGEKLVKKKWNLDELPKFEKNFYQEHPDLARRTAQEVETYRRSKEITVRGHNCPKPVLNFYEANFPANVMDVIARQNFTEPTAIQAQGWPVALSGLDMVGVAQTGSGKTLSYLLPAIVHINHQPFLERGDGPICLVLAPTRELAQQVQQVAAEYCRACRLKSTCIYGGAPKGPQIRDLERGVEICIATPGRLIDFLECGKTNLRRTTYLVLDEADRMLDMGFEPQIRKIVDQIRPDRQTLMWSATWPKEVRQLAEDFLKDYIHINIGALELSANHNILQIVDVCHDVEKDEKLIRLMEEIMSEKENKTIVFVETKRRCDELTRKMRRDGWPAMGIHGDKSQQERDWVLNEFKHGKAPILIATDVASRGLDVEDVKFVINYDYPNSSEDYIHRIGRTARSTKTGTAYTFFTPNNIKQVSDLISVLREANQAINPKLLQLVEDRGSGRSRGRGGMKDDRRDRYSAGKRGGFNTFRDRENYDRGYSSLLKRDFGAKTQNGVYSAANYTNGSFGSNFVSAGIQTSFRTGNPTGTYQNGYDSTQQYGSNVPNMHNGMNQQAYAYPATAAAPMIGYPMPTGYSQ
UniProt P15682: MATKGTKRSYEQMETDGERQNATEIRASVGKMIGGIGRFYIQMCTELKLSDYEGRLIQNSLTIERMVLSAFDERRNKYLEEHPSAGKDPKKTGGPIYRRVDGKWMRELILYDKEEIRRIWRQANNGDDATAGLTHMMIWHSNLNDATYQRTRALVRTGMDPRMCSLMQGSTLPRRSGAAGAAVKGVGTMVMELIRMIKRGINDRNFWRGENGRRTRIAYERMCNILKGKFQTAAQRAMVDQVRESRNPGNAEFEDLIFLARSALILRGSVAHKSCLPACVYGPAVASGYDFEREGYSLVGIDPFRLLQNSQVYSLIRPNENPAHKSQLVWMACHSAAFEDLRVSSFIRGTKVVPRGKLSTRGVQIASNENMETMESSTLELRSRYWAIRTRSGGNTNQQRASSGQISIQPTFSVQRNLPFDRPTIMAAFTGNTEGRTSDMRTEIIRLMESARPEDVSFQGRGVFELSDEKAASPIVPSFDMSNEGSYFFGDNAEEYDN

Molecular target: endogenous DDX5 (human (endogenous in A549)) (UniProt P17844)
Experiment: co-IP

With “NP of influenza virus WSN/1933 in infected cells (from UniProt P15682 1-498)” as the substance, how does the binding read?
Its binding is “binds”.
